Laboratory results as given in the supplement of paper PMC12823440, “Inhibitors supercharge kinase turnover through native proteolytic circuits” (Nature, 2025).
Some of the results follow. The calls rarely recur for the same compound in another form.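 Kinases were expressed as nanoluciferase fusions in K562 cells and luminescence was read every 4 h between 2 and 18 h as percent of control, DMSO set to 100% and a positive control to 0%. A time point counts as decreased when the signal drops significantly (2 sigma). The hit call is the authors' own, does not follow from the count of time points alone, and its rule is not shown.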

Sequences of proteins named here, by UniProt entry; tags and fusion partners are left off. A change or cut given only in a name is not applied to a line headed by its entry.
UniProt P29317, whole entry: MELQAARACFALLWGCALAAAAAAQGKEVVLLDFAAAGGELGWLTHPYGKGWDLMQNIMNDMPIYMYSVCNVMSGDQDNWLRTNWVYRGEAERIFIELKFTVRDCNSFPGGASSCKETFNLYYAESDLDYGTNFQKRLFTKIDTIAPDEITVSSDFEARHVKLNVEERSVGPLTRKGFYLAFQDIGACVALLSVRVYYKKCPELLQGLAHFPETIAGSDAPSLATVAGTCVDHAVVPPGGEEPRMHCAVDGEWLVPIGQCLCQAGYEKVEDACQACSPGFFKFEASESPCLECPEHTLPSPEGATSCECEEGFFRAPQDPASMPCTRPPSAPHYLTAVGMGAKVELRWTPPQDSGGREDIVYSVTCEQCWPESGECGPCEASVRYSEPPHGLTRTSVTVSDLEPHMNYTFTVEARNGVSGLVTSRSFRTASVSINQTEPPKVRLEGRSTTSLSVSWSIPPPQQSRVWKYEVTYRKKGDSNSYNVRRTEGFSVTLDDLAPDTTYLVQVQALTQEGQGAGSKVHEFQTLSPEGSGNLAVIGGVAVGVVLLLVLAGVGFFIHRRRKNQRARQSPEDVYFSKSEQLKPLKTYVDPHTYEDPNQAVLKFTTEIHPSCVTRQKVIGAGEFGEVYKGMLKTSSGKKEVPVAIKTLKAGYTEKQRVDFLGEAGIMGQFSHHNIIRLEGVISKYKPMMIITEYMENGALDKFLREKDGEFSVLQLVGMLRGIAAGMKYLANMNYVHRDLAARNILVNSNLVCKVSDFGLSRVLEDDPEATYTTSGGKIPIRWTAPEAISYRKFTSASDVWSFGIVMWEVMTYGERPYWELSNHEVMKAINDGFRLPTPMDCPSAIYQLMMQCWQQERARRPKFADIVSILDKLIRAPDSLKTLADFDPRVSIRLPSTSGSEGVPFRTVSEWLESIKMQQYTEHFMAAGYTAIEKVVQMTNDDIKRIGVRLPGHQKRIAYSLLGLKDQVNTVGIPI
UniProt P21860, whole entry: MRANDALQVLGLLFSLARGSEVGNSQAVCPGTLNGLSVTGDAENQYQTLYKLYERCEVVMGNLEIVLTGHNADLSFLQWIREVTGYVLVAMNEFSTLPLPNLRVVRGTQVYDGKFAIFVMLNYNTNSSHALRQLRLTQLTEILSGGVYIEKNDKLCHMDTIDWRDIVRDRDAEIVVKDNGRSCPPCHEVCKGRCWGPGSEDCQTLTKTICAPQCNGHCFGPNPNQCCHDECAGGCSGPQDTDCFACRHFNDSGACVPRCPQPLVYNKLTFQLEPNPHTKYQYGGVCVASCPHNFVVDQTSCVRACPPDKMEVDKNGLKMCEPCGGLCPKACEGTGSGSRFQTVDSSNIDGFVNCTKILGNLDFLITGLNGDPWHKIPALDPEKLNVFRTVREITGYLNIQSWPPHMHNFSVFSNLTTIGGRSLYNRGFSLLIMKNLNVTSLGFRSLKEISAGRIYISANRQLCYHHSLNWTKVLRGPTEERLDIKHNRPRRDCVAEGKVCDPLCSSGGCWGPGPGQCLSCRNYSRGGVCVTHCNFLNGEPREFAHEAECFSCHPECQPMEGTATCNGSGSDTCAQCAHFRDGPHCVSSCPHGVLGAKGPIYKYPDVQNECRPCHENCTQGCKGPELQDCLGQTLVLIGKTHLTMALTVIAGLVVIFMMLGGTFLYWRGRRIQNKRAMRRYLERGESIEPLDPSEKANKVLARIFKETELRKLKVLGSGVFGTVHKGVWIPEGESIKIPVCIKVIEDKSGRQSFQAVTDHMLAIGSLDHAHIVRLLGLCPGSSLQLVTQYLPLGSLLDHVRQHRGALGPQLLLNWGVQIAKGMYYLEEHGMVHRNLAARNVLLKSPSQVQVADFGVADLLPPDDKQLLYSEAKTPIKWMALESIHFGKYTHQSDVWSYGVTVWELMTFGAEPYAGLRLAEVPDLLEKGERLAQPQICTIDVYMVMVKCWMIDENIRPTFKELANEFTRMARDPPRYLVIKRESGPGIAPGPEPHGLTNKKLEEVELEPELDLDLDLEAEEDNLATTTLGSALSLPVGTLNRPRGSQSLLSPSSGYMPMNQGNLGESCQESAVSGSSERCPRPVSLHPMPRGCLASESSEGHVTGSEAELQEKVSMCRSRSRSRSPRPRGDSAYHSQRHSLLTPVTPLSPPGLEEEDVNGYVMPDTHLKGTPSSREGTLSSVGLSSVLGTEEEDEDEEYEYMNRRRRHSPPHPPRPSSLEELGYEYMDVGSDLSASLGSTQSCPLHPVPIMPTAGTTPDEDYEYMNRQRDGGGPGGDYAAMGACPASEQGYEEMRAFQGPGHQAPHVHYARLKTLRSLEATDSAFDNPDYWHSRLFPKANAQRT
UniProt Q15303, whole entry R711C: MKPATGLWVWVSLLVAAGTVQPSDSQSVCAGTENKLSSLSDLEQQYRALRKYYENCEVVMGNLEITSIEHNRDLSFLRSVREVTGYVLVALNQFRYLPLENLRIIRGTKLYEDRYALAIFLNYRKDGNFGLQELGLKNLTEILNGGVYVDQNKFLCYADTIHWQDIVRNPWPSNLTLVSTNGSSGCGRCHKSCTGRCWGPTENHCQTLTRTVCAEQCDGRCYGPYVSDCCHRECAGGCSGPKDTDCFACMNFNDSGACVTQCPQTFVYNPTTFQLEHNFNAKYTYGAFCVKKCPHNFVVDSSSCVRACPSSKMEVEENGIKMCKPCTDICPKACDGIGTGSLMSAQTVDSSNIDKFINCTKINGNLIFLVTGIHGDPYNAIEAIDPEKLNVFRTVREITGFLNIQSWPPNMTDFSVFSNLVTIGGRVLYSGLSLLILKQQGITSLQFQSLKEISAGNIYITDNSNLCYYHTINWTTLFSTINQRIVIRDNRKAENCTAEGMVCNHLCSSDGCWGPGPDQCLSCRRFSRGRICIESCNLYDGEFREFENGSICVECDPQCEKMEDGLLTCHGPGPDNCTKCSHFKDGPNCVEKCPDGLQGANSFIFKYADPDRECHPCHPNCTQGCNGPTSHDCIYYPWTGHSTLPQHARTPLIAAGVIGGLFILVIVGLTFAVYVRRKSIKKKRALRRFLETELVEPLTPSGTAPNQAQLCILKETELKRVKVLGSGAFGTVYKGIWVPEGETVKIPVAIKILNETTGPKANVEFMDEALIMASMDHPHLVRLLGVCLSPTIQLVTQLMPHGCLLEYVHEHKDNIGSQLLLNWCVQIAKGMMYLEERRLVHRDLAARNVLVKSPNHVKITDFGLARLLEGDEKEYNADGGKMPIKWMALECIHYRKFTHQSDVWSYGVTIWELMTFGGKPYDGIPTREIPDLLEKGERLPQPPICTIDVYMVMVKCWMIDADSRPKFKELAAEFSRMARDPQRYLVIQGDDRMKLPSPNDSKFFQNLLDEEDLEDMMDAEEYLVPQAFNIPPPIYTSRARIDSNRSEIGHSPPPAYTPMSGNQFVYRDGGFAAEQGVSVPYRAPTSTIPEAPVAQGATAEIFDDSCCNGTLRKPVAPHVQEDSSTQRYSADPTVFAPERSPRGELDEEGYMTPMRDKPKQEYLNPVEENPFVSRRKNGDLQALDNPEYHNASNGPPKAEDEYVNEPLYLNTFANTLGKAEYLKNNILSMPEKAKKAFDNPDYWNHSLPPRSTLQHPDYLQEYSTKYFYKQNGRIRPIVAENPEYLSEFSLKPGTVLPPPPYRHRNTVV
UniProt P22607, whole entry, looked up: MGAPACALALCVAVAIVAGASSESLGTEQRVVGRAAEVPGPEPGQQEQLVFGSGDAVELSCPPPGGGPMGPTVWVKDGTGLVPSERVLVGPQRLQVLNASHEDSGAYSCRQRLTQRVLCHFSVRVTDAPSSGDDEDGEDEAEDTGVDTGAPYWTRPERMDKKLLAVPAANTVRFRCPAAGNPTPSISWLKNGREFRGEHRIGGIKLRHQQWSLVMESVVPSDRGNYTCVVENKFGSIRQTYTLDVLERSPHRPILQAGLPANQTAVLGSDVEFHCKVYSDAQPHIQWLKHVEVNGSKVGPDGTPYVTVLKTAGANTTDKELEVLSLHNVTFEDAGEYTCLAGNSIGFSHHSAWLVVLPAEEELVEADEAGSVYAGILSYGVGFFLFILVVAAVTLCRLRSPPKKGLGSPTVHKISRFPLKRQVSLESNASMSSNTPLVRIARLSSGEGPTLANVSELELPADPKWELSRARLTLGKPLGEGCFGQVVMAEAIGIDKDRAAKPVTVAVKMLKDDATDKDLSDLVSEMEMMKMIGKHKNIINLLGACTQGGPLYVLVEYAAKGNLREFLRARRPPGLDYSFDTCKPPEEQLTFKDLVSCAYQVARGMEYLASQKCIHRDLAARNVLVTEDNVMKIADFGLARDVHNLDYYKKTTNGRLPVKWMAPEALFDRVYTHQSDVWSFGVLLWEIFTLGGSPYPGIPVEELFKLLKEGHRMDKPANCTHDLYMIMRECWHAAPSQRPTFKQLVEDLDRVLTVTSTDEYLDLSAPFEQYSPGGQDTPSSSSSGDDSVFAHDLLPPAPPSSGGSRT
UniProt P36888, whole entry: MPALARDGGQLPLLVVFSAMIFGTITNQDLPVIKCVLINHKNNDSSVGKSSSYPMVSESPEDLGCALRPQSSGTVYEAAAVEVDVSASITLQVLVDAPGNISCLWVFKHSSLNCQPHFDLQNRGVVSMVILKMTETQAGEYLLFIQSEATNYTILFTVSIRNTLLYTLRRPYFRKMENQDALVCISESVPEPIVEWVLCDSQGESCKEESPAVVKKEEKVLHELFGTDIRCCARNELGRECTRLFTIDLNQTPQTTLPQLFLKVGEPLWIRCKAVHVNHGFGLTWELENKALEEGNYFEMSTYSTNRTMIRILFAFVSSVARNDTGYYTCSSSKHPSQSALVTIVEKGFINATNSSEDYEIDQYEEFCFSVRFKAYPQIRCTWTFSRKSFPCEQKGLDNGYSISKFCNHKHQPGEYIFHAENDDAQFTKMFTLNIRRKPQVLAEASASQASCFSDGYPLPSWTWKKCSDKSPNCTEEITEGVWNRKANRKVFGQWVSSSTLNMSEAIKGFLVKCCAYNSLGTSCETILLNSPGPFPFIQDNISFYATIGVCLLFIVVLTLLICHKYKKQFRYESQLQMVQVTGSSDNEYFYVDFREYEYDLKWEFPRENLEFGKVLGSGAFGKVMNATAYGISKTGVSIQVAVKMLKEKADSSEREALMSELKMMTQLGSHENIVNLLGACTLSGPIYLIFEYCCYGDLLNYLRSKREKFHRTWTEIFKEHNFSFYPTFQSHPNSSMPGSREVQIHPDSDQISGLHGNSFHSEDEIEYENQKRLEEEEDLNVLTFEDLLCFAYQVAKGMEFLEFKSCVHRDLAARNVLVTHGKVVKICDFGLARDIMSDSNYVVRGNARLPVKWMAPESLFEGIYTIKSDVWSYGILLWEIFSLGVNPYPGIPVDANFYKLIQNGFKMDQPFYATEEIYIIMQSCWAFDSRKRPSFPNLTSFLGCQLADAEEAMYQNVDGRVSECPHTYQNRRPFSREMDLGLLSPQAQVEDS
UniProt P06241, whole entry, looked up: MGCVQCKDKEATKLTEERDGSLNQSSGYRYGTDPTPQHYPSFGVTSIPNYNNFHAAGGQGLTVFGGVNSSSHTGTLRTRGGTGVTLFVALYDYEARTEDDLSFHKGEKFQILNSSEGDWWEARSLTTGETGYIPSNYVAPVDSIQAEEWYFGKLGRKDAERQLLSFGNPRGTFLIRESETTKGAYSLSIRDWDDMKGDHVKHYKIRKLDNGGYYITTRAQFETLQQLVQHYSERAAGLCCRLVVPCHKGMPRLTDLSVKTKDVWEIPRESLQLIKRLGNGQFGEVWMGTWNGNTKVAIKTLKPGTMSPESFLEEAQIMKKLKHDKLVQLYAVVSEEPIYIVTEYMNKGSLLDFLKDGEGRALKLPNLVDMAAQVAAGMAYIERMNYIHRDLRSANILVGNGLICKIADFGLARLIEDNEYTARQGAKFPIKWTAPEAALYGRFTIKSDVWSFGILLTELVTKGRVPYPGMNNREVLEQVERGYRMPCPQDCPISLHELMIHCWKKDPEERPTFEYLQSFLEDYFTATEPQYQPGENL
UniProt P49840: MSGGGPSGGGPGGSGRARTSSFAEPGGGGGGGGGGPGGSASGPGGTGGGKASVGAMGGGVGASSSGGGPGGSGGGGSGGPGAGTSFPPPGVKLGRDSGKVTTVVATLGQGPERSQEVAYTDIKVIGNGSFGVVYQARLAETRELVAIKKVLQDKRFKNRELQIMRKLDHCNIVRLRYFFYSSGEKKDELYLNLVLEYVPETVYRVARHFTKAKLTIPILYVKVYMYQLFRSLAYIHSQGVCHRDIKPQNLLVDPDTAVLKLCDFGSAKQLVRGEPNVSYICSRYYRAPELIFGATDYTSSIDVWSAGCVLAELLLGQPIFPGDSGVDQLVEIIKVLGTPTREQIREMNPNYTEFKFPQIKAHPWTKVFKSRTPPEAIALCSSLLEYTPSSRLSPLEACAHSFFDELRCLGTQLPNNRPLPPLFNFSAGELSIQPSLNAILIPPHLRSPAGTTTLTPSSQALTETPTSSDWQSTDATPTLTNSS

What was measured:
Assay in all cases: kinase-Nluc reporter destabilization hit call (1 = scored as downregulated) (binary); higher = compound decreases kinase abundance
Conditions in all cases: K562; 2-18 h
EGFR = EGFR (UniProt P00533)
EGFR_G719S = EGFR_G719S (UniProt P00533)
EGFR_G719S_T790M = EGFR_G719S_T790M (UniProt P00533)
EGFR_L718V = EGFR_L718V (UniProt P00533)
EGFR_L858R = EGFR_L858R (UniProt P00533)
EGFR_L861Q = EGFR_L861Q (UniProt P00533)
EGFR_T790M = EGFR_T790M (UniProt P00533)
EPHA2 = EPHA2 (UniProt P29317)
ERBB3 = ERBB3 (UniProt P21860)
[1] = target: ERBB4_R711C (clone: ERBB4_mut) (UniProt Q15303)
ERN1 = ERN1 (UniProt O75460)
FGFR1 = FGFR1 (UniProt P11362)
FGFR2 = FGFR2 (UniProt P21802)
FGFR3 = FGFR3 (UniProt P22607)
FGR = FGR (UniProt P09769)
FLT3 = FLT3 (UniProt P36888)
FYN = FYN (UniProt P06241)
GSK3A = GSK3A (UniProt P49840)
HER2 = HER2 (UniProt P04626)
INSRR = INSRR (UniProt P14616)

Measured: kinase-Nluc reporter destabilization hit call

CCOc1cc(N2CCC(O)CC2)ccc1Nc1ncc2c(n1)N(C1CCCC1)CCC(=O)N2C (2.5 µM)
inactive: EGFR 0 | EGFR_G719S 0 | EGFR_G719S_T790M 0 | EGFR_L718V 0 | EGFR_L858R 0 | EGFR_L861Q 0 | EGFR_T790M 0 | EPHA2 = 0 | ERBB3 = 0 | [1] 0 | ERN1 = 0 | FGFR1 = 0 | FGFR2 = 0 | FGFR3 = 0 | FGR 0 | FLT3 = 0 | FYN 0 | GSK3A 0 | HER2 = 0 | INSRR 0

C[C@@H](NC(=O)c1ncnc(N)c1Cl)c1ncc(C(=O)Nc2cc(C(F)(F)F)c(Cl)cn2)s1 (2.5 µM)
inactive: EGFR 0 | EGFR_G719S 0 | EGFR_G719S_T790M 0 | EGFR_L718V 0 | EGFR_L858R 0 | EGFR_L861Q 0 | EGFR_T790M 0 | EPHA2 = 0 | ERBB3 = 0 | [1] 0 | ERN1 = 0 | FGFR1 = 0 | FGFR2 = 0 | FGFR3 = 0 | FGR 0 | FLT3 = 0 | FYN 0 | GSK3A 0 | HER2 = 0 | INSRR 0

CC(C)(CCCCCC(O)CCCCCC(C)(C)C(=O)O)C(=O)O [Bempedoic acid] (10 µM)
inactive: EGFR 0 | EGFR_G719S 0 | EGFR_G719S_T790M 0 | EGFR_L718V 0 | EGFR_L858R 0 | EGFR_L861Q 0 | EGFR_T790M 0 | EPHA2 = 0 | ERBB3 = 0 | [1] 0 | ERN1 = 0 | FGFR1 = 0 | FGFR2 = 0 | FGFR3 = 0 | FGR 0 | FLT3 = 0 | FYN 0 | GSK3A 0 | HER2 = 0 | INSRR 0

Cc1ncsc1-c1ccc(CNC(=O)[C@@H]2C[C@@H](O)CN2C(=O)[C@@H](NC(=O)COCCOc2ccc(-c3cc(Nc4ccc(OC(F)(F)F)cc4)ncn3)cc2)C(C)(C)C)cc1 (2.5 µM)
inactive: EGFR 0 | EGFR_G719S 0 | EGFR_G719S_T790M 0 | EGFR_L718V 0 | EGFR_L858R 0 | EGFR_L861Q 0 | EGFR_T790M 0 | EPHA2 = 0 | ERBB3 = 0 | [1] 0 | ERN1 = 0 | FGFR1 = 0 | FGFR2 = 0 | FGFR3 = 0 | FGR 0 | FLT3 = 0 | FYN 0 | GSK3A 0 | HER2 = 0 | INSRR 0

COc1ccc2nc3ccc(OC)cc3c(SCCCN)c2c1 (10 µM)
inactive: EGFR 0 | EGFR_G719S 0 | EGFR_G719S_T790M 0 | EGFR_L718V 0 | EGFR_L858R 0 | EGFR_L861Q 0 | EGFR_T790M 0 | EPHA2 = 0 | ERBB3 = 0 | [1] 0 | ERN1 = 0 | FGFR1 = 0 | FGFR2 = 0 | FGFR3 = 0 | FGR 0 | FLT3 = 0 | FYN 0 | GSK3A 0 | HER2 = 0 | INSRR 0

Nc1nccc(Oc2ccc3c(C(=O)Nc4cccc(C(F)(F)F)c4)cccc3c2)n1 (10 µM)
inactive: EGFR 0 | EGFR_G719S 0 | EGFR_G719S_T790M 0 | EGFR_L718V 0 | EGFR_L858R 0 | EGFR_L861Q 0 | EGFR_T790M 0 | EPHA2 = 0 | ERBB3 = 0 | [1] 0 | ERN1 = 0 | FGFR1 = 0 | FGFR2 = 0 | FGFR3 = 0 | FGR 0 | FLT3 = 0 | FYN 0 | GSK3A 0 | HER2 = 0 | INSRR 0

CN1CCN(Cc2ccc(-c3cnc4[nH]cc(-c5ccc6[nH]ccc6c5)c4c3)cc2)CC1 (2.5 µM)
inactive: EGFR 0 | EGFR_G719S 0 | EGFR_G719S_T790M 0 | EGFR_L718V 0 | EGFR_L858R 0 | EGFR_L861Q 0 | EGFR_T790M 0 | EPHA2 = 0 | ERBB3 = 0 | [1] 0 | ERN1 = 0 | FGFR1 = 0 | FGFR2 = 0 | FGFR3 = 0 | FGR 0 | FLT3 = 0 | FYN 0 | GSK3A 0 | HER2 = 0 | INSRR 0

COCCNc1cc(NC(=O)N2CCCc3cc(CN4CCOCC4=O)c(C=O)nc32)ncc1C#N (10 µM)
inactive: EGFR 0 | EGFR_G719S 0 | EGFR_G719S_T790M 0 | EGFR_L718V 0 | EGFR_L858R 0 | EGFR_L861Q 0 | EGFR_T790M 0 | EPHA2 = 0 | ERBB3 = 0 | [1] 0 | ERN1 = 0 | FGFR1 = 0 | FGFR2 = 0 | FGFR3 = 0 | FGR 0 | FLT3 = 0 | FYN 0 | GSK3A 0 | HER2 = 0 | INSRR 0

Cc1ccc(Nc2cc(N[C@@H]3CCCC[C@@H]3N)nnc2C(N)=O)nc1C (2 µM)
inactive: EGFR 0 | EGFR_G719S 0 | EGFR_G719S_T790M 0 | EGFR_L718V 0 | EGFR_L858R 0 | EGFR_L861Q 0 | EGFR_T790M 0 | EPHA2 = 0 | ERBB3 = 0 | [1] 0 | ERN1 = 0 | FGFR1 = 0 | FGFR2 = 0 | FGFR3 = 0 | FGR 0 | FLT3 = 0 | FYN 0 | GSK3A 0 | HER2 = 0 | INSRR 0

COCCOc1cnc2ccn([C@H](C)c3nnc4c(F)cc(-c5cnn(C)c5)cn34)c(=O)c2c1 (10 µM)
inactive: EGFR 0 | EGFR_G719S 0 | EGFR_G719S_T790M 0 | EGFR_L718V 0 | EGFR_L858R 0 | EGFR_L861Q 0 | EGFR_T790M 0 | EPHA2 = 0 | ERBB3 = 0 | [1] 0 | ERN1 = 0 | FGFR1 = 0 | FGFR2 = 0 | FGFR3 = 0 | FGR 0 | FLT3 = 0 | FYN 0 | GSK3A 0 | HER2 = 0 | INSRR 0

CN(C)CCOc1cc(-c2cn[nH]c2)ccc1NC(=O)C1COc2ccccc2O1 (stereo not given) (10 µM)
inactive: EGFR 0 | EGFR_G719S 0 | EGFR_G719S_T790M 0 | EGFR_L718V 0 | EGFR_L858R 0 | EGFR_L861Q 0 | EGFR_T790M 0 | EPHA2 = 0 | ERBB3 = 0 | [1] 0 | ERN1 = 0 | FGFR1 = 0 | FGFR2 = 0 | FGFR3 = 0 | FGR 0 | FLT3 = 0 | FYN 0 | GSK3A 0 | HER2 = 0 | INSRR 0

CCc1cc(Nc2nccc(-c3c(-c4ccc(OC)c(C(=O)Nc5c(F)cccc5F)c4)nc4ccccn34)n2)c(OC)cc1N1CCC(N2CCN(S(C)(=O)=O)CC2)CC1 (2.5 µM)
inactive: EGFR 0 | EGFR_G719S 0 | EGFR_G719S_T790M 0 | EGFR_L718V 0 | EGFR_L858R 0 | EGFR_L861Q 0 | EGFR_T790M 0 | EPHA2 = 0 | ERBB3 = 0 | [1] 0 | ERN1 = 0 | FGFR1 = 0 | FGFR2 = 0 | FGFR3 = 0 | FGR 0 | FLT3 = 0 | FYN 0 | GSK3A 0 | HER2 = 0 | INSRR 0
